No constants are given. Whether binding was seen depends on the method and setting. Binding seen in cells or lysates may run through a third protein. Some results given as binding are weak or reduced against the parent protein; the word gives no strength.

Chains of the proteins cited; added tags and fusions are not shown.
UniProt B0XS89: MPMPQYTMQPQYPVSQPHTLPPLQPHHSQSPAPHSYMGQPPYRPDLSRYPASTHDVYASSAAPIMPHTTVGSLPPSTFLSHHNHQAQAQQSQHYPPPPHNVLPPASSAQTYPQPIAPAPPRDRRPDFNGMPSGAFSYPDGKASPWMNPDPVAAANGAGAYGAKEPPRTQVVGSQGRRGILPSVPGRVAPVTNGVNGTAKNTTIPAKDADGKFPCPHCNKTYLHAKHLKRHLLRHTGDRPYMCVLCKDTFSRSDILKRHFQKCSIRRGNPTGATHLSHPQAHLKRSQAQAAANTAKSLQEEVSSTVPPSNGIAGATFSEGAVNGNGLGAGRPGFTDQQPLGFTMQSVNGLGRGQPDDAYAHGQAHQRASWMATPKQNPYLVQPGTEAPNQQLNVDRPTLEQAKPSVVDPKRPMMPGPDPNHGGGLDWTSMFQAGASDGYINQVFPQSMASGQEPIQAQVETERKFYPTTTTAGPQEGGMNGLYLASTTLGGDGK
UniProt Q4WI89: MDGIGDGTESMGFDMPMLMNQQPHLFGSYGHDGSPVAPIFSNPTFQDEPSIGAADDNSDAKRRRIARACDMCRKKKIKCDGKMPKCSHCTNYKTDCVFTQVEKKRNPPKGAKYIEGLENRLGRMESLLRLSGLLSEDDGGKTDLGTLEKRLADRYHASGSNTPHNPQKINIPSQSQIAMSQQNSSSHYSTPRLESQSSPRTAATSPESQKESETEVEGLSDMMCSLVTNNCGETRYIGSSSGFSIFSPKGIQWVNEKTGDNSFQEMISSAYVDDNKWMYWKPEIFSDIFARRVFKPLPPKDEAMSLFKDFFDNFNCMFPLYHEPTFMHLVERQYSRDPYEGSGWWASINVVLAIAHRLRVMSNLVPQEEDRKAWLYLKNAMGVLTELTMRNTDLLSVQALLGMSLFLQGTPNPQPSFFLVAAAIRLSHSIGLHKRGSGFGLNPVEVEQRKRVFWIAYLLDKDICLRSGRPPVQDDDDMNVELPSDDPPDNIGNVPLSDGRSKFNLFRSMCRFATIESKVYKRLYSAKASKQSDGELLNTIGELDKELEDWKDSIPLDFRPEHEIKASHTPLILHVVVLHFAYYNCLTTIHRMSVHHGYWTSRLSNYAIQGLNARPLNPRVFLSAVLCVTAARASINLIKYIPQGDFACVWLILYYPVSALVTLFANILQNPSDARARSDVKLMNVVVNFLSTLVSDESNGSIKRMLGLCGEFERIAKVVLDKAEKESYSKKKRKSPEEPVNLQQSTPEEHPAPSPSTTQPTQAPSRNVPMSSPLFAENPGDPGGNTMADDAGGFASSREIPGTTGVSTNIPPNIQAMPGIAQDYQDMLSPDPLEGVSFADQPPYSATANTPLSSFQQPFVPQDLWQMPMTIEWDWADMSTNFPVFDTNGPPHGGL

From paper PMC10542180 come the findings set out here.

The target of this test is FLAG-tagged FfmA (Aspergillus fumigatus) (UniProt B0XS89). In words: co-IP; whole cell protein extract of the DO-FLAG-ffmA strain prepared under nondenaturing conditions; immunoprecipitated with anti-FLAG M2 antibody (or no primary antibody), recovered with anti-mouse antibody on beads; western blot with anti-AtrR and anti-FLAG. In general terms: Immunoblotting shows a protein as a band on a membrane.

Take AtrR (from UniProt Q4WI89 1-895): the binding entry is “binds”.
